Results published in PMC5282884.
Construct, isoform or probe ends are uncertain for at least one entry. A negative result means that nothing was seen under these conditions. At least one verdict rests on a figure or table, not on a statement of the authors.

Tested on: RORβ (retinoic acid-related orphan receptor beta)
Test: EMSA
Details: Pierce EMSA kit, 30 min incubation, 6% PAGE, biotin/streptavidin-HRP ECL detection, pH and temperature not stated, recombinant protein, label: 5'-biotin on both strands

Sequence | binding result (AGGTCA stated essential for binding) | binding result
GATCACGAGAGATCGAGACCATCCTG (double strand) [HBP1 HRE Mut3] | no binding | 
GATCACGAGGTCAAGAGATCGAGACCATCCTG (double strand) [HBP1 upstream HRE WT] |  | binds
